In US7049135:
No constants are given. Whether binding was seen depends on the method and setting. Some entries that bind do so weakly or less than the wild type. Tags and fused reporters may be left off the sequences shown.

Molecular target: T1, IMPp75: intracellular domain of the p75 rat neurotrophin receptor (p75ICD) fused C-terminally to the infectivity-mediating domains (N1-N2) of gIII (filamentous phage; rat) (UniProt P07174)
T1 sequence (looked up): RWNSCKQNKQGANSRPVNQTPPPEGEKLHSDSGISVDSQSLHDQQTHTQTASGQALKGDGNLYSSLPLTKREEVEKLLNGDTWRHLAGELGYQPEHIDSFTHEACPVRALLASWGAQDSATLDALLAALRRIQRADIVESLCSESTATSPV
Test: selectively-infective phage (SIP)

B1: pep3 fused N-terminally to the C-terminal domain of gIIIp (gIIIc), displayed on phage from vector fpep3-1B-IR3seq (peptide, not shown: large carriers)
chain: CIVYHAHYLVAKC
binding: binds
